From publication PMC10593845
These are yes or no findings as the source states them, for the method shown. In cells and extracts the contact can be indirect. Some entries that bind do so weakly or less than the wild type.

Protein sequences, listed by entry. Tags and fused reporters are not part of them.
UniProt P53350: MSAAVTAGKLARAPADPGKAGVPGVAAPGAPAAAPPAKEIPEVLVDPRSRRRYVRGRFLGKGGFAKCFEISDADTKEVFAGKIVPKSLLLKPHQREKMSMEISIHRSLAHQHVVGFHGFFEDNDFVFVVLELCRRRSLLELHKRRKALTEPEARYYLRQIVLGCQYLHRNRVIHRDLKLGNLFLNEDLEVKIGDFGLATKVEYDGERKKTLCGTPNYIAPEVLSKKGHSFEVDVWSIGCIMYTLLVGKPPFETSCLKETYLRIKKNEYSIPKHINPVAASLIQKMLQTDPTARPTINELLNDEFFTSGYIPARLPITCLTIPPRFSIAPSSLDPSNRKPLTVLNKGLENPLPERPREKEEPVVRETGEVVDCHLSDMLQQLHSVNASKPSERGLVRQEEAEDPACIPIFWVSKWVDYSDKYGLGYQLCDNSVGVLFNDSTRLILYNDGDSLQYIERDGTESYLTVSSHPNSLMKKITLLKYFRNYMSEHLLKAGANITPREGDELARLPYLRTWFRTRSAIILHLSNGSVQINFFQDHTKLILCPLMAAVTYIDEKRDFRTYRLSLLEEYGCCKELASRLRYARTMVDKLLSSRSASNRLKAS

Target: T1, endogenous TRIM26 (human (endogenous in HEK293T, T98G and U118)) (UniProt Q12899)
T1 sequence: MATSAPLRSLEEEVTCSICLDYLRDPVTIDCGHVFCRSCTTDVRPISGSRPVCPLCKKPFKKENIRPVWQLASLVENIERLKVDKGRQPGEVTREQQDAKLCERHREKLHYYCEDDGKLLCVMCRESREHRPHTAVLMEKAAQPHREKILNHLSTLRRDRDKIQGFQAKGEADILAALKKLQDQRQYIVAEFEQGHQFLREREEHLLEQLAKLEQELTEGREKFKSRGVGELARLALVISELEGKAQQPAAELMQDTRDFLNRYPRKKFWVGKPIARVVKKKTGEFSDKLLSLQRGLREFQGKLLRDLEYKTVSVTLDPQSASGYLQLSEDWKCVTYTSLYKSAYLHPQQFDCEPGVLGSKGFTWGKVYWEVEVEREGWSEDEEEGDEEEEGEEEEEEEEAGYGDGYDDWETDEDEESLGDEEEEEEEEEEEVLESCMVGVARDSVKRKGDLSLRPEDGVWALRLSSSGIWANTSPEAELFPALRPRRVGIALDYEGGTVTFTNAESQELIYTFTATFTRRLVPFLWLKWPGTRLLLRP
Assay: co-IP; endogenous proteins; cell lysates (T98G and U118 in Fig. 5a-d) precleared, primary antibody 4 °C overnight, protein A/G agarose, IB; also after PLK1 siRNA, onvansertib or MLN0905 (interaction of TRIM26 and GPX4 decreased)

“endogenous PLK1 (from UniProt P53350 1-603) (enzyme)” was tested, and the binding was “binds”.
